Measured values reported in paper PMC12663309.
Results are given in words; binding and its absence hold for the method and conditions named. Binding seen in cells or lysates may run through a third protein. These calls come from enrichment with a bait or labelling near it, and not all partners need be listed.

Chains of the proteins cited; added tags and fusions are not shown.
UniProt Q8TDX7: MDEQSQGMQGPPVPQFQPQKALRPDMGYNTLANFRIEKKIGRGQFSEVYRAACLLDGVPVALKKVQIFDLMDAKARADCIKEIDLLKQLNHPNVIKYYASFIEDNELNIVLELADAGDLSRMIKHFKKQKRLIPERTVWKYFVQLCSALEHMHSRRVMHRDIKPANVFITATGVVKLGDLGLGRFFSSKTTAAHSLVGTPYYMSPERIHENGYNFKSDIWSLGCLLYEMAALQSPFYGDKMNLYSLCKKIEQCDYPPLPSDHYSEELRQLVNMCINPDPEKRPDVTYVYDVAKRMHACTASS
UniProt P21283: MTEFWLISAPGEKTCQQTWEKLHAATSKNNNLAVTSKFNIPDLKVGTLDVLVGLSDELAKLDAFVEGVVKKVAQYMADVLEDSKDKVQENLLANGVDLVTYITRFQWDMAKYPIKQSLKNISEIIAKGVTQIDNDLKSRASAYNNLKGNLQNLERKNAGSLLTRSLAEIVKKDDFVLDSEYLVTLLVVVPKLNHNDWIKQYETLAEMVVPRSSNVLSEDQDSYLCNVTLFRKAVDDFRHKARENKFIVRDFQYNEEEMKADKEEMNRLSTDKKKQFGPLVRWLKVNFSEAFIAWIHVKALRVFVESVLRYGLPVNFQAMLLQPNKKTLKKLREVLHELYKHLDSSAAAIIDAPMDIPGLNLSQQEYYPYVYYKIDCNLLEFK

Target: NIMA-related kinase 7 (NEK7), endogenous, HepG2 mitochondria (human (endogenous in HepG2)) (UniProt Q8TDX7)
Test: affinity purification with mass spectrometry; mitochondrial proteins purified from HepG2 cells; co-immunoprecipitation with NEK7 antibody (Abcam) against IgG, agarose magnetic beads, gel, trypsin, LC-MS/MS

binding: binds
Substance: VATC1 (from UniProt P21283 1-382)
